# Results deposited as PubChem BioAssay AID1508588 (Peter MacCallum Cancer Centre, 2020)
# Test: 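Knock-downs boosting vemurafenib effects on melanoma cell growth or lactate release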 (primary screen)
# Cells: human WM266.4 melanoma cells (BRAF V600 mutant)
# Reagent: siRNA pool against human genes, 40 nM
# Timing: 96 h from transfection to read-out
# Challenge: vemurafenib 300 nM (about IC25), added 48 h after transfection, for 48 h; comparison arm got DMSO vehicle only
# Measurement: 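Ratios to non-targeting siRNA for cell gain, counted as DAPI nuclei after minus before drug and averaged over two replicates, and for absorbance-read medium lactate per cell; both binned into fold-change classes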
# Direction: cell gain with vemurafenib: higher = more cell gain than with non-targeting siRNA; lactate per cell with vemurafenib: higher = more lactate made per cell
# Active means: 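a knock-down counts as enhancing when its fold-change classes with vehicle and with vemurafenib, taken together, show a stronger drug effect on cell gain or lactate per cell; exact class pairs not stated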
# Calls: active = enhances vemurafenib effect; inactive = no enhancement seen
# Here is a random part of about 18,000 reagents. In the full data, 790 (4.4%) were called active. 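Calls rest on a combination of fold-change classes in drug and vehicle arms, not all shown here.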
Target gene,cell gain with vemurafenib,lactate per cell with vemurafenib,call
EMILIN2,0.82,0.43,inactive
GSTT2,1.21,0.55,inactive
LATS1,0.38,0.77,inactive
ANKAR,0.32,1.71,inactive
GALNT4,0.84,1.04,inactive
SLC22A9,0.35,1.15,inactive
SERPINB4,0.58,1.12,inactive
ZNF436-AS1,1.28,0.6,inactive
ZNF93,0.44,0.7,inactive
ERAP2,0.44,1.04,inactive
POLR2J,0.42,1.37,inactive
ST3GAL6,0.35,2.58,inactive
CHAF1B,0.11,1.34,inactive
MMP25,0.65,0.68,inactive
CHCHD1,0.7,1.32,inactive
EMP3,0.37,0.3,active
CLCNKB,0.66,0.36,inactive
SLC25A53,0.83,0.86,inactive
CHKB,1.02,0.63,inactive
HRK,0.45,1.55,inactive
CSK,0.59,1.23,inactive
KLHL13,0.78,0.72,inactive
ATP8A2,0.83,0.94,inactive
ZNF224,0.49,1.41,inactive
KIR3DL2,0.82,0.48,active
MRGPRX1,0.69,0.9,inactive
CCNG1,0.45,1.34,inactive
DDX47,0.36,0.44,inactive
CFD,0.69,1.1,inactive
CPA4,0.68,0.9,inactive
POLR3G,0.49,1.16,inactive
KERA,0.21,1.24,inactive
YKT6,0.53,1.18,inactive
ILRUN,0.63,0.88,inactive

3 successive reagents already listed, for reference:
Target gene,cell gain with vemurafenib,lactate per cell with vemurafenib,call
ST3GAL6,0.35,2.58,inactive
CHAF1B,0.11,1.34,inactive
MMP25,0.65,0.68,inactive
